Earlier results in patent US20040224037A1, “Devastating treatment against hiv/aids with capsaicin” (priority 2003, published 2004).
At least one compound was matched to its structure with a doubt left. Peptide text beside a SMILES is read from it.

Assays:
macrophages = settings: in vitro
masT cells = settings: suspensions of mast cells in rats

Row | Compound | concentration required to completely inhibit reactive oxygen species, compared with Capsaicin (macrophages) | power in provoking histamine release, compared with substance p and polisteskinin (masT cells)
1 | O=C(/C=C/C=C/c1ccc2c(c1)OCO2)N1CCCCC1 [piperine] | Higher concentrations | 
2 | NC(N)=NCCC[C@H](NC(=O)[C@H](Cc1ccccc1)NC(=O)[C@@H]1CCCN1C(=O)[C@H](CO)NC(=O)[C@H](Cc1ccccc1)NC(=O)CNC(=O)[C@@H]1CCCN1C(=O)[C@@H]1CCCN1C(=O)[C@@H](N)CCCN=C(N)N)C(=O)O [bradykinin] (H-RPPGFSPFR-OH) |  | Less powerful
